Measured data: PubChem BioAssay AID1259254 (NCATS, 2017)

Purpose: 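Genome-wide screen for genes that prevent DNA re-replication in cancer cells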 (primary screen)
System: human HCT116 colorectal cancer cells
Reagents: single siRNA against human genes
Timing: 3 days
Read-out: 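Imaged Hoechst DNA stain sorts each cell into a cycle phase by DNA amount; per plate, G2 fraction set to 0% for non-targeting and 100% for GMNN siRNA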
Direction: G2 robust z-score and G2 cells, % of GMNN control: higher = more G2 cells, more excess DNA replication; raw share of cells in G2: higher = larger share of cells with G2 DNA content
Active means: 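Active siRNAs have a G2 robust z of 5 or more median absolute deviations over the median, which in these data means about 38% or higher of GMNN control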
The deposit covers about 59,000 reagents; shown is an unselected part. Over the whole deposit, about 1,550 (2.6%) were called active. 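G2 share is only a proxy for re-replication; each gene was hit by three separate siRNAs, and active genes were retested.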 The raw values are shown without normalisation. Not stated in the record: the amount of reagent.

Gene	PubChem SID	G2 robust z-score	G2 cells, % of GMNN control	raw share of cells in G2 (%)	call
GJA10 (gap junction protein alpha 10)	SID160752611	-0.232	1.34	4.55	inactive
GJA10 (gap junction protein alpha 10)	SID160752612	2.98	23.9	10.5	inactive
GJA10 (gap junction protein alpha 10)	SID160752613	-0.215	1.45	2.85	inactive
HPSE (heparanase)	SID160729345	4.09	31.7	19.5	inactive
HPSE (heparanase)	SID160729346	0.812	8.68	6.65	inactive
HPSE (heparanase)	SID160729347	-0.0206	2.82	7.59	inactive
TMC6 (transmembrane channel like 6)	SID160730558	0.639	7.46	7.91	inactive
TMC6 (transmembrane channel like 6)	SID160730569	-0.326	0.672	4.41	inactive
TMC6 (transmembrane channel like 6)	SID160730576	-0.574	-1.07	2.77	inactive
ASB7 (ankyrin repeat and SOCS box containing 7)	SID160732500	-0.149	1.92	3.28	inactive
ASB7 (ankyrin repeat and SOCS box containing 7)	SID160757769	0.266	4.84	6	inactive
ASB7 (ankyrin repeat and SOCS box containing 7)	SID160757771	-0.0995	2.27	3.82	inactive
SCN2B (sodium voltage-gated channel beta subunit 2)	SID160716389	0.00955	3.03	6.39	inactive
SCN2B (sodium voltage-gated channel beta subunit 2)	SID160716390	3.27	26	13.6	inactive
SCN2B (sodium voltage-gated channel beta subunit 2)	SID160716391	-0.995	-4.03	2.8	inactive
SHPRH (SNF2 histone linker PHD RING helicase)	SID160762546	0.891	9.24	10.4	inactive
SHPRH (SNF2 histone linker PHD RING helicase)	SID160762547	1.3	12.1	9.78	inactive
SHPRH (SNF2 histone linker PHD RING helicase)	SID160762548	0.961	9.73	8.26	inactive
GRIK5 (glutamate ionotropic receptor kainate type subunit 5)	SID160774427	4.64	35.6	18.2	inactive
GRIK5 (glutamate ionotropic receptor kainate type subunit 5)	SID160774436	5.7	43.1	19.3	active
GRIK5 (glutamate ionotropic receptor kainate type subunit 5)	SID160774447	-0.827	-2.85	3.26	inactive
TRPS1 (transcriptional repressor GATA binding 1)	SID160718373	-0.21	1.49	6.23	inactive
TRPS1 (transcriptional repressor GATA binding 1)	SID160718374	2.26	18.8	11.3	inactive
TRPS1 (transcriptional repressor GATA binding 1)	SID160718375	-0.455	-0.232	4.4	inactive
VPS28 (VPS28 subunit of ESCRT-I)	SID160740208	0.62	7.33	6.65	inactive
VPS28 (VPS28 subunit of ESCRT-I)	SID160740209	-0.0166	2.85	5.63	inactive
VPS28 (VPS28 subunit of ESCRT-I)	SID160740210	-0.0282	2.77	4.13	inactive
SPOPL (speckle type BTB/POZ protein like)	SID160764280	1.33	12.3	8.22	inactive
SPOPL (speckle type BTB/POZ protein like)	SID160764281	-0.208	1.5	3.92	inactive
SPOPL (speckle type BTB/POZ protein like)	SID160764283	1.49	13.4	9.59	inactive
P4HA2 (prolyl 4-hydroxylase subunit alpha 2)	SID160721214	4.83	36.9	17.9	inactive
P4HA2 (prolyl 4-hydroxylase subunit alpha 2)	SID160721215	2.61	21.4	12.8	inactive
P4HA2 (prolyl 4-hydroxylase subunit alpha 2)	SID160721216	-0.765	-2.41	3.44	inactive
UCHL3 (ubiquitin C-terminal hydrolase L3)	SID160718568	0.649	7.53	8.18	inactive
UCHL3 (ubiquitin C-terminal hydrolase L3)	SID160718570	-0.334	0.617	5.13	inactive
UCHL3 (ubiquitin C-terminal hydrolase L3)	SID160718571	0.517	6.6	6.37	inactive
SEL1L (SEL1L adaptor subunit of SYVN1 ubiquitin ligase)	SID160716546	3.3	26.2	13.5	inactive
SEL1L (SEL1L adaptor subunit of SYVN1 ubiquitin ligase)	SID160716547	4.6	35.3	17.6	inactive
SEL1L (SEL1L adaptor subunit of SYVN1 ubiquitin ligase)	SID160716548	-0.767	-2.43	3.15	inactive
KRTAP2-1 (keratin associated protein 2-1)	SID160724585	-0.788	-2.57	2.69	inactive
KRTAP2-1 (keratin associated protein 2-1)	SID160724586	-0.396	0.178	2.46	inactive
KRTAP2-1 (keratin associated protein 2-1)	SID160751045	-0.342	0.56	4.29	inactive
ATPAF1 (ATP synthase mitochondrial F1 complex assembly factor 1)	SID160747906	0.228	4.57	4.4	inactive
ATPAF1 (ATP synthase mitochondrial F1 complex assembly factor 1)	SID160747908	0.189	4.3	7.85	inactive
ATPAF1 (ATP synthase mitochondrial F1 complex assembly factor 1)	SID160747909	-0.291	0.917	3.92	inactive
RBPJ	SID160731127	0.0558	3.36	5.43	inactive
RBPJ	SID160775658	0.359	5.49	7.77	inactive
RBPJ	SID160775659	-0.551	-0.907	4.71	inactive
